Literature values, collected in US8962003B2, “Insect behaviour modifying compounds” (The New Zealand Institute for Plant and Food Research …, priority 2003, dated 2015).
For at least one compound, name, drawing or mass did not settle the structure.

What was measured:
Thrips coloratus = conditions: field trials; cited from earlier work
Thrips tabaci = conditions: cited from earlier work
Thrips hawaiiensis = conditions: field trials; cited from earlier work
[1] = system: Frankliniella occidentalis; conditions: anisaldehyde with blue sticky or yellow water traps, WO 03/055309 Y-tube; cited from earlier work

COc1ccc(C=O)cc1 [anisaldehyde]
Attractancy to Thrips coloratus (literature) (Thrips coloratus): not for Thrips coloratus | Attractancy to Thrips tabaci (literature) (Thrips tabaci): varies in its attractiveness | Attractancy to Thrips hawaiiensis (literature) (Thrips hawaiiensis): attractant | Attractancy to Frankliniella occidentalis (literature) [1]: attractant
